Results on 1 substance are retold here after publication PMC7346109.

The chains behind the UniProt entries cited, without tags or fusion partners.
UniProt O02703: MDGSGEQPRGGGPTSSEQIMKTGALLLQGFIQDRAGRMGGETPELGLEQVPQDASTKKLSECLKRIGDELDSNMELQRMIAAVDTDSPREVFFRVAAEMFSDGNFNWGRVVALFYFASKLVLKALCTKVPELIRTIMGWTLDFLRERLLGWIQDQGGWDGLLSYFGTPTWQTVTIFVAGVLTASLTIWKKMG
UniProt P67939: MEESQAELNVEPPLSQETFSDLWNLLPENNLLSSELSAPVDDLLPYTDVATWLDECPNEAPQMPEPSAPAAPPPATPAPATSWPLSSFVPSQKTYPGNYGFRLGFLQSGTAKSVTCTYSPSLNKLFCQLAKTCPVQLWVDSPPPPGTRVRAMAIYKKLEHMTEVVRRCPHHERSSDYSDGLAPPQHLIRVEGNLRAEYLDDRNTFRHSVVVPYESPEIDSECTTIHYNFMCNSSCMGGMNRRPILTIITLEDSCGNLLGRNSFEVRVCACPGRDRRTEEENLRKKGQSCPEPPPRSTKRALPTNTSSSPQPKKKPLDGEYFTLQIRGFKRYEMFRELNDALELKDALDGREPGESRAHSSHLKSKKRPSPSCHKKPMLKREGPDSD

These are yes or no findings as the source states them, for the method shown. Binding seen in cells or lysates may run through a third protein. Some entries that bind do so weakly or less than the wild type.

In this assay the target is Bax (bovine (endogenous in primary bovine granulosa cells)) (UniProt O02703). Put plainly: co-IP; Pierce Co-Immunoprecipitation Kit; endogenous proteins of primary bovine granulosa cells cultured in T75 bottles; cells treated with NEFA, or with NEFA and NAC.

Regarding p53 (from UniProt P67939 1-386), the binding entry was “binds”.
